Here are results for three molecules from PMC12423330.

Amino acid sequences for entries named in this document (tags omitted).
UniProt Q8BRC6: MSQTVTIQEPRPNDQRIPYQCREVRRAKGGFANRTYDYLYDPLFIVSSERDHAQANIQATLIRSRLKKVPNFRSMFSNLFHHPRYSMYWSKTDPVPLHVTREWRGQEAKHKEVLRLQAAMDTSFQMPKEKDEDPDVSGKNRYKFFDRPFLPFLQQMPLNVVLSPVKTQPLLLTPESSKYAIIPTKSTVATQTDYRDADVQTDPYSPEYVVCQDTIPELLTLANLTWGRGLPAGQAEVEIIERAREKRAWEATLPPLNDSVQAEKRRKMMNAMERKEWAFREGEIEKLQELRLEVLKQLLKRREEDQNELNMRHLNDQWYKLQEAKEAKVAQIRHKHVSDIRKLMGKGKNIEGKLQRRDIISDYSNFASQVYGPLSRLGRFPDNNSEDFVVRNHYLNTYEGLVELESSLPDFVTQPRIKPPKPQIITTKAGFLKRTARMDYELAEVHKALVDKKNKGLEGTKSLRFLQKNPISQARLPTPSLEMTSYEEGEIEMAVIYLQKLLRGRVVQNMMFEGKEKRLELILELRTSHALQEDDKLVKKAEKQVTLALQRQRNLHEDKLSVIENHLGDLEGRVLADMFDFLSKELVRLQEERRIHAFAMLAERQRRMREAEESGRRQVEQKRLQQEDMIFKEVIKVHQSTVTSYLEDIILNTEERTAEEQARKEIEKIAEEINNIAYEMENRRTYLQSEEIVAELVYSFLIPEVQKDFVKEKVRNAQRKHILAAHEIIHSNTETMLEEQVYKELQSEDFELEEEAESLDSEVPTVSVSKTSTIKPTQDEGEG
UniProt A0JP43: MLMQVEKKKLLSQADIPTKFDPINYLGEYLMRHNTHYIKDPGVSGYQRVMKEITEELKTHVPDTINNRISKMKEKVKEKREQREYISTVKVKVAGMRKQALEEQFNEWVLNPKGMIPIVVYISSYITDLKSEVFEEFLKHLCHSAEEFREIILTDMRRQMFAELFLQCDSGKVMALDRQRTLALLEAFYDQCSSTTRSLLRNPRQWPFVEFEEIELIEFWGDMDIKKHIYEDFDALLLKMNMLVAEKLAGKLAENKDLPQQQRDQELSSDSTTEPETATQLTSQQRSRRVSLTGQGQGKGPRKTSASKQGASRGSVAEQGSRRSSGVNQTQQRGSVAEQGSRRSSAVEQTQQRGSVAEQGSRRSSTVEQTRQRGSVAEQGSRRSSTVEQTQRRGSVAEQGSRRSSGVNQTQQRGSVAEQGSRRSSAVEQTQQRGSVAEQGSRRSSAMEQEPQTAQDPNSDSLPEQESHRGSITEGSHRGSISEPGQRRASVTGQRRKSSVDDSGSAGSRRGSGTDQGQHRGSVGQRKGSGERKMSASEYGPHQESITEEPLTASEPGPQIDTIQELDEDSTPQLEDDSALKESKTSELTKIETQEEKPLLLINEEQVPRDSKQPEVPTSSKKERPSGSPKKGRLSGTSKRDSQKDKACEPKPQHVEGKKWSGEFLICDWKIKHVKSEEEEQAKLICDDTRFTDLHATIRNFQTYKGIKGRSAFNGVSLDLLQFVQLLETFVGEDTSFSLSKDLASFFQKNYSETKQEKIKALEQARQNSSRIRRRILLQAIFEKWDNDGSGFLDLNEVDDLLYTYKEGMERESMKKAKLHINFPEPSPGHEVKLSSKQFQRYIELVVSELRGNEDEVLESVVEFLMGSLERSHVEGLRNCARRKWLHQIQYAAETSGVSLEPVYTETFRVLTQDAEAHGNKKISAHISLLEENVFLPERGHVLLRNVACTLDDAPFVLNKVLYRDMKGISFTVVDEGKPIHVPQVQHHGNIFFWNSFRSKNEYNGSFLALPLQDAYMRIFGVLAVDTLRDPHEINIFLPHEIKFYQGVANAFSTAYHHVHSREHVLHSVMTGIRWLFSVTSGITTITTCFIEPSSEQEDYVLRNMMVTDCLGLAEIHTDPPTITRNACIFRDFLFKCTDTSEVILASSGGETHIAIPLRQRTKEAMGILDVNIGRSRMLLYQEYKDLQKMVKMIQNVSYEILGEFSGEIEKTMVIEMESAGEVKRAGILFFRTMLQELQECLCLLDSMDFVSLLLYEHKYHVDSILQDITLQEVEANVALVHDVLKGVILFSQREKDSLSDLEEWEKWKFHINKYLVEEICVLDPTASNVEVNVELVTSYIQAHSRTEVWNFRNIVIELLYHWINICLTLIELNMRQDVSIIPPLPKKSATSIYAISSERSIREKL
UniProt E9PY46: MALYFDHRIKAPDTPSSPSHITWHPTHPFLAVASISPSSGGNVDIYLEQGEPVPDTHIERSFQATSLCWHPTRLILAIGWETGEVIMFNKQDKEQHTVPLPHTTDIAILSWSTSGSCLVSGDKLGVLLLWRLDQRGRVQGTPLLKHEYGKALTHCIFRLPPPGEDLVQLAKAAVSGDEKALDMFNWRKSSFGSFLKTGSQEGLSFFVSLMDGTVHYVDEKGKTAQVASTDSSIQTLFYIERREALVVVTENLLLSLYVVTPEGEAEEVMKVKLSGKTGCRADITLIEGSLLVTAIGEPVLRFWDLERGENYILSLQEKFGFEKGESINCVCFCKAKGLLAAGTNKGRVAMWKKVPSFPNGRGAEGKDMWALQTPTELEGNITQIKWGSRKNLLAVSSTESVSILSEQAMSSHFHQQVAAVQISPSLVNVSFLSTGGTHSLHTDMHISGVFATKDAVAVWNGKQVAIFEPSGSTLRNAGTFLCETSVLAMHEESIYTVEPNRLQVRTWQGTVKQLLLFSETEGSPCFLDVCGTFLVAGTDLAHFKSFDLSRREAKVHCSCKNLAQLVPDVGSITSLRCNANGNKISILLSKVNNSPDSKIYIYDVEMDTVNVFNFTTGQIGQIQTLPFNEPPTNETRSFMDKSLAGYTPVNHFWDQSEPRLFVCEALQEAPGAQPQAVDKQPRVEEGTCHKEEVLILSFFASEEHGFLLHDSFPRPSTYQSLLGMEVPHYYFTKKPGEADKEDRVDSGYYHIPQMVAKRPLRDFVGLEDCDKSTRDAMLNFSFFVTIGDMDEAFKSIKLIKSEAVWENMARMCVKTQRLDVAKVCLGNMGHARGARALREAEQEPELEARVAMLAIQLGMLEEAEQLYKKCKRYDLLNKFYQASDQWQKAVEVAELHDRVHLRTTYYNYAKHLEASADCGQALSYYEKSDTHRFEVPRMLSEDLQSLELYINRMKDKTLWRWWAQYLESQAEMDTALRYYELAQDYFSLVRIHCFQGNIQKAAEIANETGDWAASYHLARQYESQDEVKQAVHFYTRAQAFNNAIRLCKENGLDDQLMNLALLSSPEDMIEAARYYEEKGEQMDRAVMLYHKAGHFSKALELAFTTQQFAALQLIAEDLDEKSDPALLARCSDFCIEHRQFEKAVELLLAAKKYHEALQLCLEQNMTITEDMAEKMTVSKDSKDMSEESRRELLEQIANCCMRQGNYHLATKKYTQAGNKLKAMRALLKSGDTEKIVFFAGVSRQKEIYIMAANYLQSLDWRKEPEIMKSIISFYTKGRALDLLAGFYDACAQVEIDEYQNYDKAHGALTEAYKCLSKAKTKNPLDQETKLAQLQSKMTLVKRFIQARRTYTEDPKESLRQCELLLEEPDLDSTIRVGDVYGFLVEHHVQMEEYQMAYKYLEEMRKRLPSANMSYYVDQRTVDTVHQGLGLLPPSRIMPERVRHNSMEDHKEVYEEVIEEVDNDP

Results are given in words; binding and its absence hold for the method and conditions named. In cells and extracts the contact can be indirect. Some entries that bind do so weakly or less than the wild type.

The target in test [1] is CFAP91-BioID2-3×FLAG (mouse) (UniProt Q8BRC6). In words: co-IP; IP with an anti-FLAG antibody from testis lysate of Cfap91-/- TG and WT males, then immunoblotting. For orientation: A western blot detects proteins with antibodies after separation by electrophoresis.
The target is the same in test [2]. The description is as above. The source holds these as a separate data set.
Test [3] has the same target. In words: co-IP; IP from postnatal day 15 (P15) testes of WT and Cfap91-/- TG males, then immunoblotting.
Test [4] deals with EFCAB5 expressed in HEK293T cells (UniProt A0JP43). In words: co-IP; EFCAB5 and RGS22 expressed in HEK293T cells; IP and immunoblotting in the presence and absence of Ca2+.

Turning to IFT140 (from UniProt E9PY46 1-1464), in test [1], the binding result is listed as “binds”.

B1: CFAP251 (protein, UniProt E9Q743 1-1299)
chain: MSDTEENPLEESRESGEMEEEKEEKKEEEEEEEEGEKEKEEEEEEEKGKEEEKEEEKEEGKEEEKKEEEEEKGKKEEEEEEEEEGKGKEEEKEEEKEEEEKEEEKEKEEEEEEEGKGKEEEEEGKEEEEEEKEEEEKEEEKEEEEEEEEEKEEYNPSFEEDALQQSLTEGSLSWEESQEDGEGLEEWVEKEEQREGEEVRGEEESEVRGREEEEGWEEEKSGEEEKSEESERSKERGGEEEGQEKEEAEHEGEREEGREEEEKEKSVEREEEEEEEDTETTETKAGRAKEEKKEKQNKTALVDNIVISHEPPRSSSSLADSPEVSQIYKDNSMKVDDTEEASQKPEDILAQGKDEARLSLEERRKLFQSKGLSAEESLVSVSTEDTLFQKEEDSKVYPLSMTWSFGWNSSLPVYYMREDRRVILYTCAHTAIMYDVVRNTQYHLQGHPNIISCLCVSEDRRWIATADEGPDCLIIIWDSFTGIPVHTIFDSCPEGNGMRSIAITRDSKFLATISDSATQKVCIWKWTLAVETPACTLELPKEYGFQDNLVFNPANNKELVSNSKTQAIYYCWFEDKGILAHSAPVLTEKTFNKLVGKFSQSVFHLKLPQVLSATKEGKLVVWDIHYPSSTSSSAISAFPFIKPRKLVHLQKEAITVLMTIDSYIVTGDIKGNIKFYDHTLSVVNWYSNFKLGAIRTLSFSKTIPSLPTEKSNLPTDCTLRGDLFVVRNFIIGTFDATVYHMTVDGTKLEKLFVEPRDAVYAVSCHPYQPLIAVGSVCGMIKVWDFEKKVYLFSRTFEKGLGVQCLTYNPEGALLGAGFTEGTVYILDAMSLENESPEPFKYSKSSVSHCCFSHDSNYMATADVNFTVAVYMVVVKNGQRVWEYLARLRSHQNSIQSLLFGVHLDSNEPRLLSLGKDRFLIEYNLVKSCKDHLDVLDVHRTDQGNYPTCMIWYPPLTKELFLLICNSGYKVKLFNATTKMCRKTLLGPAYGSPIEHAQVLPVKSTLELQKRYLVFINKDKVGLQILPVDGNPHKTCAIVCHPNGVAGMALSYDGRFAFTAGGQDRSVVQWKINLGALEAAVSLGGEDLTPFYGLVSGGREGKFYRELEDYFYYSQIRSQGIDTMETRQVSEHICLSELPFVMRAIGFYPSEEKIEDMFNEIKFSEYVETGKLIDKINLPDFLKVYLNHRPPFGNTMDGIQNSFNVLGYTNSEGKKAIRREDFLNLLLTKGEHMTEEEMIDCFSTLFGLTPEGWKSEPAATCINGPEICLQKELPEEITAEIFTTEILGLTLSDSSEQLIQ
In the case of B1, the binding result in test [2] and in test [3] was “binds” throughout.

B2: RGS22 expressed in HEK293T cells (protein, UniProt G3UYX5 1-1258)
chain: MPEKRLSAEPPEVTEEEFENYLATDNFLVDYFNEFLSLPTFPEAIRFNVDYGVFEVVNDAPQLLEKQLKKILQNQQPRNPIYDVVRKGKSDSKSTQKSVPCEDEAINVNYSIMCLKREQGINWIKRERLPAFLESDCYFEYRLAKLISQATWSSTGMNFIVGTNFTPWILRRPPAPPPPSTDEDNYMIMKKFYVSLGQASYTQTKDWFTLAKESENTVTMASLPCCIPHHQTASPVIATASEIFDDGVHPRTIKSLSKSSKAVSELDEEEEGSISMKDSPSQALLRVYLEKKGGKERNLTLHFSSVEEFLDAYIIFILREAIQHITGQSLSDTPEYINYYKVSHVIFDKVPPVPSNKAIVSPPVEMVEEISKDRLENVSLSSESESIGPESRADWCISHRTYDIGNRREFERFKKFLKGTLGERYWWLWMDIERLKVLKDPERHQRHLEKMKKCYLVSSGERYLSAEILSKFKLLHGSRWTADHLKNIQAEVLKPLLLYWAPRFCVTHSASAKNASTELKFWRLRQEKPRKDVDPFPQMATLLPLRPKSCIPQTPEVQGEEINLFQPSKFKKLSKINAGTQQLGRSEPLNAVSSKDGGLEKGSKRLPESTTVVRLTSFTDISECLKPQLERKYTYTEEHNVKTVSNVGALGGFDMENLLQSLYVENRAGFFFTKFCENSGNKLWKHSVYFWFDLQAYHQLFYQETLQPFKVCKQAQYLFATYIAPSASFDIGLHQEGKKDIYMKIQPPFEDLFDTAEEFILLSLLEPWTQMVMSDKMAYKKVELQEETRQLDSACFRKLHALHKETISKKAEDTTGYAMAKLSLSDVSKQTEYWLNVPEGYKHFTFTDLLNNKLEFEHFRQFLESHSSSLDLMCWIDIEQFRRIIFKDQKQREEKSIYIKNKYLNKKYFFGPRSPASLHQQNQIMLLSGGWGRILHEQLDASVLVEIQKHVLNRLENVWLPLFLSSEQFASRQKIKTQMKDIADELLLQRHDRKIGVWKPVESKWISSSCEIIAFRKALLNPVIARQFQRFVALKGDLLENGVLFWQEVQKFKDLCHSHCDESIIHKKITTIINCFINSYIPPALQIDIPVEQAQKILEHRKELGPYVFREAQMTIFGVLFKFWPQFCEFRKNLTDEKIMSVLERRQEHKQKRKASDTEEDKAGKSGVKQYASTTGSLTKPVLGSESLLVLQSYGRQPTWCYSKYIEALEQERILLKIQEEVERKMFTGTSSFTNLLKPSTGSALSLKKNVSLHSIQR
Turning to B2, the binding result in test [4] is reported as “binds”.
